Experimental data from the supplement of paper PMC3334620.
Over roughly 33,000 sequences, “E-score (-0.5 to 0.5)” has its median near -0.0034; the highest 2% begin near 0.25. Some of the results follow.

Biological target: T1, Yap3 (UniProt P38749)
T1 sequence: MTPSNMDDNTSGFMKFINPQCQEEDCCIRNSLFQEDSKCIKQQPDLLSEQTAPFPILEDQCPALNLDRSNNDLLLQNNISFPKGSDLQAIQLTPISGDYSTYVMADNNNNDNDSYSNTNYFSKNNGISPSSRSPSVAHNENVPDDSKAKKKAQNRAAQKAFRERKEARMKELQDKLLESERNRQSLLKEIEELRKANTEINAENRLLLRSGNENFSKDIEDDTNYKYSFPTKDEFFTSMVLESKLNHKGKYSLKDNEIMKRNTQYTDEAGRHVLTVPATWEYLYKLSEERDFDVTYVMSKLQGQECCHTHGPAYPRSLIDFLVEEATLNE
Assay: PBM E-score (8-mer binding enrichment) (E-score (-0.5 to 0.5)); higher = stronger / more preferred TF binding
Conditions: protein concentration: 100 nM; construct: GST-full length
Outline: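 For each ungapped eight-base word taken together with its reverse complement, the Universal PBM Analysis Suite assigned an E-score. Binding data came from GST-tagged yeast transcription factors, applied at about 100-200 nM, on universal all-10-mer Agilent arrays made double-stranded by primer extension. Fluorescent anti-GST marked bound protein, and scans were normalised with masliner.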

| Sequence | PBM E-score |
| --- | --- |
| ACTTCACT | 0.156 |
| GCGGAAGC | -0.179 |
| TCACGGCA | 0.0474 |
| CCGAGGCG | -0.0459 |
| CAATGTCA | 0.119 |
| ACTATCGG | 0.025 |
| CTTCCGTA | 0.176 |
| AAGGTCAT | -0.047 |
| CTGTAACA | -0.0647 |
| AAAAAAGT | 0.174 |
| CGGTGCCC | -0.264 |
| AATTGAGT | 0.0864 |
| AACCCCGG | -0.158 |
| ATGGATTC | -0.0182 |
| ACCCCTGA | -0.0867 |
| ACTCTGTG | -0.123 |
| CCACATCA | 0.00532 |
| TAACACGA | 0.231 |
| AGTCCTAA | -0.0258 |
| ATCCAAGG | -0.0203 |
| GGATGACA | 0.207 |
| CTTAGTTA | 0.179 |
| ACAGTCGG | -0.0319 |
| AGCAAAAA | 0.122 |
| ACACACGT | 0.0617 |

Pulled one by one from above (five):

| Sequence | PBM E-score |
| --- | --- |
| ACACACGT | 0.0617 |
| ACCCCTGA | -0.0867 |
| AAAAAAGT | 0.174 |
| AATTGAGT | 0.0864 |
| AAGGTCAT | -0.047 |

Additional records follow.

| Sequence | PBM E-score |
| --- | --- |
| TGGACTAA | -0.00372 |
| CAAGAGAA | 0.0376 |
| ACGACGTC | 0.037 |
| CGTACTGA | 0.0487 |
| GTAACACA | 0.198 |
| CGGACTGA | -0.0704 |
| AACAGTAG | 0.0583 |
| CGCCCCTA | 0.0165 |
| AATCAGAG | 0.0956 |
| AAAGTCGC | 0.085 |
| GGACTAAA | -0.121 |
| CGATCGGC | 0.00629 |
| ATCTATCG | -0.0358 |
| ATAACTGC | -0.074 |
| AGCAAGTC | -0.11 |
| ACGGAGCT | -0.249 |
| AAGCCCCA | -0.311 |
| ATTTTCTG | 0.0697 |
| ATCTGTAA | -0.0303 |
| ACTTAGCT | -0.0578 |
| ACCTGTCT | -0.111 |
| AACTAACG | 0.103 |
| ACAGCACA | 0.0102 |
| GCCCCGCA | -0.221 |
| CGGCTTTA | 0.0265 |

| Sequence | PBM E-score |
| --- | --- |
| ACACCCCG | -0.325 |
| GCCTAGGA | -0.227 |
| CAATTGAG | 0.0311 |
| CTGCTTGC | -0.171 |
| CCAAACGA | -0.0994 |
| CCCGAAGA | -0.137 |
| ATGGGCAG | 0.0284 |
| GCATCCGA | -0.169 |
| AGTCGACC | -0.0691 |
| GCGAGAAC | -0.0233 |
| TACGGCCA | -0.0385 |
| AGTTGTAG | 0.0912 |
| GCTGCGCA | -0.253 |
| ACGCTCGA | -0.08 |
| ACAAGGGA | -0.12 |
| CCTTTGCA | -0.0482 |
| GCTAAGTA | 0.146 |
| CCGTATTC | 0.0278 |
| AGCTGACA | -0.153 |
| AGCGGCCT | -0.207 |
| ACCTATTC | -0.109 |
| AAAGGCTA | 0.00049 |
| ACCGCACA | -0.11 |
| AAGTCCGG | -0.149 |
| GATTCTAA | -0.0356 |

As entered above:
Value of ACCGCACA under PBM E-score: -0.11
Value of CTGCTTGC under PBM E-score: -0.171

Going on with the list.

| Sequence | PBM E-score |
| --- | --- |
| GTCATTGA | 0.112 |
| AAATCGGA | -0.00717 |
| AACATAGG | 0.0402 |
| CACACCGC | -0.176 |
| TAAACTGA | 0.147 |
| AGTAAGAG | 0.0235 |
| CCTCCAAA | -0.122 |
| ACGTCGGC | -0.0204 |
| GCGTCACA | 0.0364 |
| ATGAGTCA | 0.192 |
| CCCACCAG | -0.148 |
| ATATTCAG | 0.131 |
| ATGAATTG | 0.208 |
| GCACCCCA | -0.118 |
| GTCAGCGA | -0.149 |
| ACGGGACG | -0.169 |
| AATCAGGG | -0.127 |
| CCCGTAGA | -0.345 |
| ACCACGGT | -0.281 |
| ACAATCGC | 0.124 |
| AGGTCTAA | 0.00299 |
| ACATGCCC | -0.183 |
| AAAATACT | 0.0626 |
| CAAGTCCG | -0.194 |
| AAATATGT | 0.286 |

| Sequence | PBM E-score |
| --- | --- |
| ACATCCCA | -0.08 |
| CCGTTAGG | 0.00098 |
| AGGCCAAT | -0.0612 |
| AGCTAACA | -0.0328 |
| ATCCCTAC | 0.077 |
| GAGAGGGA | -0.278 |
| CAATAGAC | 0.111 |
| AGGCGAAC | -0.129 |
| CTAATAAA | 0.178 |
| GAGAAGCA | -0.118 |
| CGACCCTC | -0.232 |
| GGCTTTGA | -0.00632 |
| AAGGCGTG | -0.157 |
| AACTAAGG | 0.0261 |
| GACGCCCA | -0.0057 |
| TGTGAACA | 0.0599 |
| AATTATGG | 0.238 |
| TGGTCAAA | 0.0841 |
| CCAGCCCC | -0.218 |
| CGGGTCAA | -0.0934 |
| GTGTTGGA | 0.0456 |
| CACCTTAA | 0.142 |
| TACGTAAA | 0.319 |
| CATCGTAC | 0.029 |
| GTCGACAC | -0.0164 |

| Sequence | PBM E-score |
| --- | --- |
| AGGCAAGA | -0.00431 |
| AAACTTAT | 0.159 |
| CTTTATTA | 0.199 |
| CGACGACG | -0.176 |
| CATCCGCA | 0.0681 |
| TGGGTCAA | -0.0606 |
| AGATCAGC | -0.126 |
| CCATTACC | 0.0322 |
| GAGAGTTA | 0.0167 |
| CGAAAATA | 0.143 |
| ACTCGCGC | 0.115 |
| ATCTCTTC | 0.0603 |
| CAAACACA | 0.172 |
| AGAGTAGA | 0.132 |
| AGGTCGCC | -0.201 |
| CGCGACGA | 0.186 |
| CAAGCTAG | -0.0475 |
| CATCTAGC | -0.0525 |
| ACCGGTTC | -0.0158 |
| ATGAAGCG | -0.141 |
| CACGTTCC | -0.0345 |
| CCAATGGG | -0.327 |
| AGATTACG | 0.213 |
| TTTCCAAA | 0.02 |
| TATAATAA | 0.287 |

| Sequence | PBM E-score |
| --- | --- |
| AGACCTTA | 0.0637 |
| AGGACGAC | -0.201 |
| CATACGCA | -0.0288 |
| GATTTTGA | 0.194 |
| CACGGCCG | -0.0612 |
| AATTTATG | 0.252 |
| CATTCTCA | 0.201 |
| TATATAAA | 0.274 |
| ACCTCACC | -0.0618 |
| ACTCATGA | 0.207 |
| GTTGATGA | 0.177 |
| CACACAGG | 0.0663 |
| GTTCTTCA | 0.0992 |
| GTGTGTGA | 0.0344 |
| GAATGGTA | 0.057 |
| ATGGCAAC | 0.161 |
| AAATCGTA | 0.152 |
| AATCCTCG | 0.0201 |
| AGTGTCTC | -0.0462 |
| CCGTTTAA | 0.0507 |
| CGCTGTCA | -0.151 |
| ACCAGTTA | 0.139 |
